These are yes or no findings as the source states them, for the method shown. In cells and extracts the contact can be indirect. Binding can be weak; no strength is given.
What follows are substances tested against Flag-CtIP (human) (UniProt Q99708) (assay: co-IP; 293T cells cotransfected with Flag- and His-tagged constructs; IP with anti-Flag ("indicated antibodies" for Figures 5A, 7C, 7D), western blot with anti-His and anti-Flag; some panels with or without 2 μM CPT for 1 h, or with MG132 (20 μM, 3 h) and NETN lysis).

The chains behind the UniProt entries cited, without tags or fusion partners. Where a name states a change or a piece, a line headed by the entry shows the natural chain unless it says otherwise.
UniProt Q99708: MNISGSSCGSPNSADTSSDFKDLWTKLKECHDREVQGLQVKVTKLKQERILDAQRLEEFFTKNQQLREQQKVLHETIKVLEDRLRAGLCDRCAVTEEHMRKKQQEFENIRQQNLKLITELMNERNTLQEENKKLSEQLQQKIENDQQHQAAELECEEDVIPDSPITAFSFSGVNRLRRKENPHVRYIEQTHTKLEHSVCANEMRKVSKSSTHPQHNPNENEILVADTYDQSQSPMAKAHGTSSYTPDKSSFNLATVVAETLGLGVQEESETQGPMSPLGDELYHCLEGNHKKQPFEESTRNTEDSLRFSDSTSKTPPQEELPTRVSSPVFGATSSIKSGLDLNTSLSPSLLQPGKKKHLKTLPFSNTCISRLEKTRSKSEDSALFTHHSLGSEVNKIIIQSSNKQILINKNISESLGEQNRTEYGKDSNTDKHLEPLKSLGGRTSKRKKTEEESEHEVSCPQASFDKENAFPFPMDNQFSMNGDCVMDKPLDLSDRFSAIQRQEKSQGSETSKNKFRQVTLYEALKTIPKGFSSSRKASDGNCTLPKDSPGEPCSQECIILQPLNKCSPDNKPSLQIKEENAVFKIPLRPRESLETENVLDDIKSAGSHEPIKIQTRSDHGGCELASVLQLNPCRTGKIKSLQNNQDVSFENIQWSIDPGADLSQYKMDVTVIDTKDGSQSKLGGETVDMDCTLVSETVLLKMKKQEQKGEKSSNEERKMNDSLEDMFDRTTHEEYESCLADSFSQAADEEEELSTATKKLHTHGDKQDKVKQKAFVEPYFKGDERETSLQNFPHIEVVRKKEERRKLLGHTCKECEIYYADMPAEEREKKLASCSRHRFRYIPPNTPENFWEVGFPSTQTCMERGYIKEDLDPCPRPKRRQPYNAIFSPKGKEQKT
UniProt Q13356: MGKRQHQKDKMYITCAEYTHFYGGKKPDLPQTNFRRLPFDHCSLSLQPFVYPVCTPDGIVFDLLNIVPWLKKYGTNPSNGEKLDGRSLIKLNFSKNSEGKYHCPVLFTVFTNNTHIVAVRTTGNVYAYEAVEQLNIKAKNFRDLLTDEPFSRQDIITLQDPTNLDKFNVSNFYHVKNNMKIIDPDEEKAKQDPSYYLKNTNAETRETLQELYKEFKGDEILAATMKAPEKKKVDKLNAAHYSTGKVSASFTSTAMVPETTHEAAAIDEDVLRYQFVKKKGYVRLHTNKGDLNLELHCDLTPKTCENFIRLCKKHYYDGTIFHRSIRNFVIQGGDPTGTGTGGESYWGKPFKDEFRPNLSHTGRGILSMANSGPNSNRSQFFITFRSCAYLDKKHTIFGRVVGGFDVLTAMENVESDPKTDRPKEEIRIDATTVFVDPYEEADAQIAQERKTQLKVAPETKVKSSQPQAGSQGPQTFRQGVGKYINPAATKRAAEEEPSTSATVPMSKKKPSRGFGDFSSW

| binding | Substance |
| --- | --- |
| binds | His-PPIL2 C8A (from UniProt Q13356) |
| binds | His-PPIL2 N6A (from UniProt Q13356) |
| binds | His-PPIL2 N6D (from UniProt Q13356) |
| binds | His-PPIL2 C8D (from UniProt Q13356) |
